Results are given in words; binding and its absence hold for the method and conditions named.
Biological target: wild-type purple acid phosphatase (human) (UniProt P13686)
Test: mass photometry; 20 ul of 5 nM protein samples added to 4 ul buffer; glycosylated proteins stored in 0.1 M acetate buffer; landing assays, 60 s at 331 Hz; both purified

By UniProt entry, the sequences of proteins in these tests, tags left out. Residues count along the entry.
UniProt P13686, residues 22-325: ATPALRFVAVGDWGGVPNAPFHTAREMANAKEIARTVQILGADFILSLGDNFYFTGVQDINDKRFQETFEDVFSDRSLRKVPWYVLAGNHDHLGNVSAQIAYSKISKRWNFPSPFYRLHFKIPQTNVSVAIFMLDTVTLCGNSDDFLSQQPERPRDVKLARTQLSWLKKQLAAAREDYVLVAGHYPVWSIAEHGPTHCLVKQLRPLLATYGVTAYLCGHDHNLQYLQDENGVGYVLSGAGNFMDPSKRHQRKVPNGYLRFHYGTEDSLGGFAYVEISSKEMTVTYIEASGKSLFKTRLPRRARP

wild-type purple acid phosphatase (from UniProt P13686 22-325) (enzyme)
binding: no binding (tested: 5 nM protein samples)

— article PMC13319145
